The list shows a part of the results.
Experiments:
Test in all cases: glycan array binding signal (z-score within array); higher = stronger binding
Conditions in all cases: glycan notation: IUPAC condensed, linker removed
[1] = biological target: Gal(b1-3)[Fuc(a1-4)]GlcNAc
Method in brief: (§1)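 The binding signal is a Z-score computed within each array and averaged over linkers. Arrays of the same protein sequence at different concentrations or buffers were also averaged together. Data originate from 3228 arrays in the Consortium for Functional Glycomics database, kept only where the protein sequence was available.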

[2] = biological target: Gal(b1-3)[Fuc(a1-4)]GlcNAc(b1-2)Man(a1-3)[Gal(b1-3)[Fuc(a1-4)]GlcNAc(b1-2)Man(a1-6)]Man(b1-4)GlcNAc(b1-4)GlcNAc
Method in brief: as §1

[3] = biological target: Gal(b1-3)[Fuc(a1-4)]GlcNAc(b1-2)Man(a1-3)[Gal(b1-3)[Fuc(a1-4)]GlcNAc(b1-2)Man(a1-6)]Man(b1-4)GlcNAc(b1-4)[Fuc(a1-6)]GlcNAc
Method in brief: as §1

[4] = biological target: Gal(b1-3)[Fuc(a1-4)]GlcNAc(b1-3)Gal(b1-3)[Fuc(a1-4)]GlcNAc
Method in brief: as §1

[5] = biological target: Gal(b1-3)[Fuc(a1-4)]GlcNAc(b1-3)Gal(b1-4)GlcNAc
Method in brief: as §1

[6] = biological target: Gal(b1-3)[Fuc(a1-4)]GlcNAc(b1-3)Gal(b1-4)[Fuc(a1-3)]GlcNAc
Method in brief: as §1

[7] = biological target: Gal(b1-3)[GlcNAc(b1-6)]GalNAc
Method in brief: as §1

[8] = biological target: Gal(b1-3)[Neu5Ac(a2-6)]GalNAc
Method in brief: as §1

[9] = biological target: Gal(b1-3)[Neu5Ac(a2-6)]GlcNAc(b1-6)Gal(b1-4)Glc
Method in brief: as §1

[10] = biological target: Gal(b1-3)[Neu5Ac(b2-6)]GalNAc
Method in brief: as §1

[11] = biological target: Gal(b1-4)GalNAc(a1-3)[Fuc(a1-2)]Gal(b1-4)GlcNAc
Method in brief: as §1

[12] = biological target: Gal(b1-4)GalNAc(b1-3)[Fuc(a1-2)]Gal(b1-4)GlcNAc
Method in brief: as §1

[13] = biological target: Gal(b1-4)Glc
Method in brief: as §1

[14] = biological target: Gal(b1-4)Glc6S
Method in brief: as §1

[15] = biological target: Gal(b1-4)GlcNAc
Method in brief: as §1

[16] = biological target: Gal(b1-4)GlcNAc(a1-6)Gal(b1-4)GlcNAc
Method in brief: as §1

[17] = biological target: Gal(b1-4)GlcNAc(b1-2)Man(a1-3)Man(b1-4)GlcNAc(b1-4)GlcNAc
Method in brief: as §1

[18] = biological target: Gal(b1-4)GlcNAc(b1-2)Man(a1-3)[Gal(b1-4)GlcNAc(b1-2)Man(a1-6)]Man(b1-4)GlcNAc(b1-4)GlcNAc
Method in brief: as §1

[19] = biological target: Gal(b1-4)GlcNAc(b1-2)Man(a1-3)[Gal(b1-4)GlcNAc(b1-2)Man(a1-6)]Man(b1-4)GlcNAc(b1-4)[Fuc(a1-6)]GlcNAc
Method in brief: as §1

[20] = biological target: Gal(b1-4)GlcNAc(b1-2)Man(a1-3)[Man(a1-6)]Man(b1-4)GlcNAc(b1-4)GlcNAc
Method in brief: as §1

[21] = biological target: Gal(b1-4)GlcNAc(b1-2)Man(a1-6)Man(b1-4)GlcNAc(b1-4)GlcNAc
Method in brief: as §1

[22] = biological target: Gal(b1-4)GlcNAc(b1-2)Man(a1-6)[Man(a1-3)]Man(b1-4)GlcNAc(b1-4)GlcNAc
Method in brief: as §1

[23] = biological target: Gal(b1-4)GlcNAc(b1-2)[Gal(b1-4)GlcNAc(b1-4)]Man(a1-3)[Gal(b1-4)GlcNAc(b1-2)Man(a1-6)]Man(b1-4)GlcNAc(b1-4)GlcNAc
Method in brief: as §1

[24] = biological target: Gal(b1-4)GlcNAc(b1-3)Gal(b1-3)GlcNAc
Method in brief: as §1

[25] = biological target: Gal(b1-4)GlcNAc(b1-3)Gal(b1-4)Glc
Method in brief: as §1

[26] = biological target: Gal(b1-4)GlcNAc(b1-3)Gal(b1-4)GlcNAc
Method in brief: as §1

[27] = biological target: Gal(b1-4)GlcNAc(b1-3)Gal(b1-4)GlcNAc(b1-3)Gal(b1-4)GlcNAc
Method in brief: as §1

[28] = biological target: Gal(b1-4)GlcNAc(b1-3)Gal(b1-4)[Fuc(a1-3)]GlcNAc(b1-3)Gal(b1-4)[Fuc(a1-3)]GlcNAc
Method in brief: as §1

[29] = biological target: Gal(b1-4)GlcNAc(b1-3)GalNAc
Method in brief: as §1

[30] = biological target: Gal(b1-4)GlcNAc(b1-3)[Gal(b1-4)GlcNAc(b1-6)]Gal(b1-4)GlcNAc
Method in brief: as §1

[31] = biological target: Gal(b1-4)GlcNAc(b1-3)[GlcNAc(b1-6)]Gal(b1-4)GlcNAc
Method in brief: as §1

[32] = biological target: Gal(b1-4)GlcNAc(b1-6)Gal(b1-4)GlcNAc
Method in brief: as §1

[33] = biological target: Gal(b1-4)GlcNAc(b1-6)Gal(b1-4)GlcNAc(b1-6)GalNAc
Method in brief: as §1

[34] = biological target: Gal(b1-4)GlcNAc(b1-6)GalNAc
Method in brief: as §1

[35] = biological target: Gal(b1-4)GlcNAc(b1-6)[Gal(b1-3)]GalNAc
Method in brief: as §1

[36] = biological target: Gal3S(b1-3)GalNAc
Method in brief: as §1

[37] = biological target: Gal3S(b1-3)GlcNAc
Method in brief: as §1

[38] = biological target: Gal3S(b1-3)[Fuc(a1-4)]GlcNAc
Method in brief: as §1

[39] = biological target: Gal3S(b1-4)Glc
Method in brief: as §1

[40] = biological target: Gal3S(b1-4)Glc6S
Method in brief: as §1

[41] = biological target: Gal3S(b1-4)GlcNAc
Method in brief: as §1

[42] = biological target: Gal3S(b1-4)GlcNAc6S
Method in brief: as §1

[43] = biological target: Gal3S(b1-4)[Fuc(a1-3)]Glc
Method in brief: as §1

[44] = biological target: Gal3S4S(b1-4)GlcNAc
Method in brief: as §1

[45] = biological target: Gal3S6S(b1-4)GlcNAc
Method in brief: as §1

B1: Spy 2007 (Streptococcus pyogenes), Q99XV3 (protein)
chain: MKKGFFLMAMVVSLVMIAGCDKSANPKQPTQGMSVVTSFYPMYAMTKEVSGDLNDVRMIQSGAGIHSFEPSVNDVAAIYDADLFVYHSHTLEAWARDLDPNLKKSKVDVFEASKPLTLDRVKGLEDMEVTQGIDPATLYDPHTWTDPVLAGEEAVNIAKELGRLDPKHKDSYTKNAKAFKKEAEQLTEEYTQKFKKVRSKTFVTQHTAFSYLAKRFGLKQLGISGISPEQEPSPRQLKEIQDFVKEYNVKTIFAEDNVNPKIAHAIAKSTGAKVKTLSPLEAAPSGNKTYLENLRANLEVLYQQLK
- glycan array binding signal (z-score) [1]: -0.386
- glycan array binding signal (z-score) [2]: -0.038
- glycan array binding signal (z-score) [3]: -0.079
- glycan array binding signal (z-score) [4]: -0.24
- glycan array binding signal (z-score) [5]: -0.608
- glycan array binding signal (z-score) [6]: -0.246
- glycan array binding signal (z-score) [7]: -0.377
- glycan array binding signal (z-score) [8]: 0.246
- glycan array binding signal (z-score) [9]: -0.411
- glycan array binding signal (z-score) [10]: -0.536
- glycan array binding signal (z-score) [11]: -0.584
- glycan array binding signal (z-score) [12]: -0.344
- glycan array binding signal (z-score) [13]: -0.461
- glycan array binding signal (z-score) [14]: -0.178
- glycan array binding signal (z-score) [15]: -0.197
- glycan array binding signal (z-score) [16]: -0.424
- glycan array binding signal (z-score) [17]: -0.627
- glycan array binding signal (z-score) [18]: -0.825
- glycan array binding signal (z-score) [19]: -1.16
- glycan array binding signal (z-score) [20]: -1.11
- glycan array binding signal (z-score) [21]: -0.392
- glycan array binding signal (z-score) [22]: -0.445
- glycan array binding signal (z-score) [23]: -0.702
- glycan array binding signal (z-score) [24]: 0.183
- glycan array binding signal (z-score) [25]: 0.349
- glycan array binding signal (z-score) [26]: 1.27
- glycan array binding signal (z-score) [27]: 1.34
- glycan array binding signal (z-score) [28]: -0.198
- glycan array binding signal (z-score) [29]: -0.377
- glycan array binding signal (z-score) [30]: -0.556
- glycan array binding signal (z-score) [31]: 0.467
- glycan array binding signal (z-score) [32]: 0.892
- glycan array binding signal (z-score) [33]: -0.368
- glycan array binding signal (z-score) [34]: 0.164
- glycan array binding signal (z-score) [35]: -0.38
- glycan array binding signal (z-score) [36]: 0.145
- glycan array binding signal (z-score) [37]: 1.92
- glycan array binding signal (z-score) [38]: 3.35
- glycan array binding signal (z-score) [39]: -0.543
- glycan array binding signal (z-score) [40]: 0.48
- glycan array binding signal (z-score) [41]: 0.615
- glycan array binding signal (z-score) [42]: 2.47
- glycan array binding signal (z-score) [43]: 0.789
- glycan array binding signal (z-score) [44]: 0.546
- glycan array binding signal (z-score) [45]: 0.342

Source: the supplement of paper PMC8728848
